# From publication PMC10341545, “Structural and Biochemical Investigation of Selected Pathogenic Mutants of the Human Dihydrolipoamide Dehydrogenase” (International Journal of Molecular Sciences, 2023)
# Results are given in words; binding and its absence hold for the method and conditions named. Some results given as binding are weak or reduced against the parent protein; the word gives no strength.
# T1: human dihydrolipoamide dehydrogenase, wild type (human), P09622
# T1 chain: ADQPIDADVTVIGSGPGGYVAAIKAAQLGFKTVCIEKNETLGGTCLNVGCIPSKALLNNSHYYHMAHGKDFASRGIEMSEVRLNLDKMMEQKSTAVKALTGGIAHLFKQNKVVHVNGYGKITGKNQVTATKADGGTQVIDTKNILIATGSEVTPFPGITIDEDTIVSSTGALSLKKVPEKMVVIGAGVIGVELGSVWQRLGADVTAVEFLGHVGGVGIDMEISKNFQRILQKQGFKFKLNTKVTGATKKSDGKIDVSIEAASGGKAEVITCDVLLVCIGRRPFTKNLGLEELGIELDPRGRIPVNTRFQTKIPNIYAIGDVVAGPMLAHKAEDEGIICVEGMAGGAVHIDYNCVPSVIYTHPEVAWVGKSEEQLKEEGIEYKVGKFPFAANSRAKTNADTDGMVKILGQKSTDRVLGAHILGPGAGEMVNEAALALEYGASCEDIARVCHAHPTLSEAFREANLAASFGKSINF
# Tests used:
# G101del-hLADH (human) = G101del-hLADH (human) (UniProt P09622); assay: SEC; calibrated size-exclusion chromatography (cSEC); HiPrep 16/60 Sephacryl S-200 HR, 4 °C, 150 mM ammonium acetate, pH 6.80, 0.5 mL/min; 40–780 μg protein loaded; dimer to monomers; both purified
# [1] = molecular target: T1, human dihydrolipoamide dehydrogenase, …; assay: as above; settings: remark: other sources report otherwise
binding (G101del-hLADH (human)),binding [1],Binder
no binding,–,"G101del-hLADH (enzyme, UniProt P09622 36-509) ADQPIDADVTVIGSGPGGYVAAIKAAQLGFKTVCIEKNETLGGTCLNVGCIPSKALLNNSHYYHMAHGKDFASRGIEMSEVRLNLDKMMEQKSTAVKALTGIAHLFKQNKVVHVNGYGKITGKNQVTATKADGGTQVIDTKNILIATGSEVTPFPGITIDEDTIVSSTGALSLKKVPEKMVVIGAGVIGVELGSVWQRLGADVTAVEFLGHVGGVGIDMEISKNFQRILQKQGFKFKLNTKVTGATKKSDGKIDVSIEAASGGKAEVITCDVLLVCIGRRPFTKNLGLEELGIELDPRGRIPVNTRFQTKIPNIYAIGDVVAGPMLAHKAEDEGIICVEGMAGGAVHIDYNCVPSVIYTHPEVAWVGKSEEQLKEEGIEYKVGKFPFAANSRAKTNADTDGMVKILGQKSTDRVLGAHILGPGAGEMVNEAALALEYGASCEDIARVCHAHPTLSEAFREANLAASFGKSINF"
–,binds,"human dihydrolipoamide dehydrogenase, wild type, P09622 36-509 (enzyme) ADQPIDADVTVIGSGPGGYVAAIKAAQLGFKTVCIEKNETLGGTCLNVGCIPSKALLNNSHYYHMAHGKDFASRGIEMSEVRLNLDKMMEQKSTAVKALTGGIAHLFKQNKVVHVNGYGKITGKNQVTATKADGGTQVIDTKNILIATGSEVTPFPGITIDEDTIVSSTGALSLKKVPEKMVVIGAGVIGVELGSVWQRLGADVTAVEFLGHVGGVGIDMEISKNFQRILQKQGFKFKLNTKVTGATKKSDGKIDVSIEAASGGKAEVITCDVLLVCIGRRPFTKNLGLEELGIELDPRGRIPVNTRFQTKIPNIYAIGDVVAGPMLAHKAEDEGIICVEGMAGGAVHIDYNCVPSVIYTHPEVAWVGKSEEQLKEEGIEYKVGKFPFAANSRAKTNADTDGMVKILGQKSTDRVLGAHILGPGAGEMVNEAALALEYGASCEDIARVCHAHPTLSEAFREANLAASFGKSINF"
